This note sets out measurements from article PMC9729194.

Protein sequences, listed by entry. Tags and fused reporters are not part of them.
UniProt Q92754: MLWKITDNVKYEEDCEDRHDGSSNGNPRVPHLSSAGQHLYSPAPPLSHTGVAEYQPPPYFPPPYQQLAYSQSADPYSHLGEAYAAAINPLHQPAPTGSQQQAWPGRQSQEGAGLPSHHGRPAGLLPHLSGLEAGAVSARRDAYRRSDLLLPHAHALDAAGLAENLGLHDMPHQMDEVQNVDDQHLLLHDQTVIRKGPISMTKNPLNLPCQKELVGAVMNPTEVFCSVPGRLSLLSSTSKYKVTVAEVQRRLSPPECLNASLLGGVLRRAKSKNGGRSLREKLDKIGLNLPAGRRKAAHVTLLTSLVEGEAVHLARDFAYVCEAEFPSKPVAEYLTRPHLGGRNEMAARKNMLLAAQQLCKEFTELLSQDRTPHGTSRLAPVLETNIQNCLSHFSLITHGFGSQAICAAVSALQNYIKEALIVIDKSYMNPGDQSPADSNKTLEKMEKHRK

This experiment deals with T1, Hematological and neurological expressed 1 like (HN1L) (human) (UniProt Q9H910).
T1 sequence: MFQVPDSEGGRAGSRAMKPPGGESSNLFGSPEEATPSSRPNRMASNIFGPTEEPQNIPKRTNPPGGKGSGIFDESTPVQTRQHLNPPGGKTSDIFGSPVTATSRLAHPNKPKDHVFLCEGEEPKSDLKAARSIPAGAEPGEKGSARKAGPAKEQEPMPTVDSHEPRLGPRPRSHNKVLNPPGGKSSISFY
Description: co-IP; KYSE30-HN1L cells lysed in NP-40 lysis buffer on ice; IP with anti-HN1L antibody (ab200571) on Dynabeads Protein A; HN1L and AP-2γ detected by western blotting. A general note: Immunoblotting shows a protein as a band on a membrane.

These are yes or no findings as the source states them, for the method shown. Binding seen in cells or lysates may run through a third protein. Some results given as binding are weak or reduced against the parent protein; the word gives no strength.

Consider “transcription factor AP-2γ (from UniProt Q92754 1-450)”, for which the binding result was “binds”.
